Assay results taken from the supplement of paper PMC11732987, “Enantioselective OTUD7B fragment discovery through chemoproteomics screening and high-throughput optimisation” (Communications Chemistry, 2025).
The list shows a part of the results. The data scatter; read single values as rough.

Sequences of proteins named here, by UniProt entry; tags and fusion partners are left off. A change or cut given only in a name is not applied to a line headed by its entry. Residues count along the entry.
UniProt P33527: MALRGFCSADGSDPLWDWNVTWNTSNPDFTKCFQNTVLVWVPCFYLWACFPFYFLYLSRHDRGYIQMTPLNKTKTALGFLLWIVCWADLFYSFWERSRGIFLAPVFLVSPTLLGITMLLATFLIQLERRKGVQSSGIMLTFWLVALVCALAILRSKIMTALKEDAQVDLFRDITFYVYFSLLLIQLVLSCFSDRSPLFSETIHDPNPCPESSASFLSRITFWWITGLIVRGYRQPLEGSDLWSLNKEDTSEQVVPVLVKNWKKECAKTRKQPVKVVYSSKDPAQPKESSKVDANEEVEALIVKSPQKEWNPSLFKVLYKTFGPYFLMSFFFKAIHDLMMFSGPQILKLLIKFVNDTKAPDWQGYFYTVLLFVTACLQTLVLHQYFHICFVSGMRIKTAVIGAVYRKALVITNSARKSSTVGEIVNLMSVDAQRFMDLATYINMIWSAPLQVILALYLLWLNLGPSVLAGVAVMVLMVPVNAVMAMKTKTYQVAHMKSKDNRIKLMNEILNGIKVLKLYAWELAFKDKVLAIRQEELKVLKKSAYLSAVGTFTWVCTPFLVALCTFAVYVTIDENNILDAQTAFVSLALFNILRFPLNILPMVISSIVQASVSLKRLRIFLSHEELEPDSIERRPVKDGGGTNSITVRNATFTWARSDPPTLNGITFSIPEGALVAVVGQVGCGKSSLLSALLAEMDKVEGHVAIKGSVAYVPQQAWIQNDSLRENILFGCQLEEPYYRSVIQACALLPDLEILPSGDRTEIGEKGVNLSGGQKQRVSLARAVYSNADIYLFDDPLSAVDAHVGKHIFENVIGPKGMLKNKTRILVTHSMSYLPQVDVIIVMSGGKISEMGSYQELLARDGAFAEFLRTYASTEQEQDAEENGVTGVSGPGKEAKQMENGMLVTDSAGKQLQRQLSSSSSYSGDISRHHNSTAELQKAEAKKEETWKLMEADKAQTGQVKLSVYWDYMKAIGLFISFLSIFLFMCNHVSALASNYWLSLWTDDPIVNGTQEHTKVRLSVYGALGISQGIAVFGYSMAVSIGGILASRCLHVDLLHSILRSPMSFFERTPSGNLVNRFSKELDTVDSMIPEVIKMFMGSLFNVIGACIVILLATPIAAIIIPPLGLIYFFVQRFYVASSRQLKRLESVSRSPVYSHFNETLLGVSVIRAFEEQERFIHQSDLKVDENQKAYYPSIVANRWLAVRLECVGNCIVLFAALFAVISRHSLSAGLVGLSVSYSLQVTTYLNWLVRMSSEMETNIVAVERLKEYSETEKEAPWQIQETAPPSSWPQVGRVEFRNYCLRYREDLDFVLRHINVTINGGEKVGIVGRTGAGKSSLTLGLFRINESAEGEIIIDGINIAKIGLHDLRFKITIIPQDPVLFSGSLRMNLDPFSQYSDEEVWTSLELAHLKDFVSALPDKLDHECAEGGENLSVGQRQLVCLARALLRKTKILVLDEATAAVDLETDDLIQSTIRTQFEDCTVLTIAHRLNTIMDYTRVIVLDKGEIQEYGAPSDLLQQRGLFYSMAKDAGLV
UniProt P09110, 139-158: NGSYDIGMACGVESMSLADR
UniProt Q9NUQ8: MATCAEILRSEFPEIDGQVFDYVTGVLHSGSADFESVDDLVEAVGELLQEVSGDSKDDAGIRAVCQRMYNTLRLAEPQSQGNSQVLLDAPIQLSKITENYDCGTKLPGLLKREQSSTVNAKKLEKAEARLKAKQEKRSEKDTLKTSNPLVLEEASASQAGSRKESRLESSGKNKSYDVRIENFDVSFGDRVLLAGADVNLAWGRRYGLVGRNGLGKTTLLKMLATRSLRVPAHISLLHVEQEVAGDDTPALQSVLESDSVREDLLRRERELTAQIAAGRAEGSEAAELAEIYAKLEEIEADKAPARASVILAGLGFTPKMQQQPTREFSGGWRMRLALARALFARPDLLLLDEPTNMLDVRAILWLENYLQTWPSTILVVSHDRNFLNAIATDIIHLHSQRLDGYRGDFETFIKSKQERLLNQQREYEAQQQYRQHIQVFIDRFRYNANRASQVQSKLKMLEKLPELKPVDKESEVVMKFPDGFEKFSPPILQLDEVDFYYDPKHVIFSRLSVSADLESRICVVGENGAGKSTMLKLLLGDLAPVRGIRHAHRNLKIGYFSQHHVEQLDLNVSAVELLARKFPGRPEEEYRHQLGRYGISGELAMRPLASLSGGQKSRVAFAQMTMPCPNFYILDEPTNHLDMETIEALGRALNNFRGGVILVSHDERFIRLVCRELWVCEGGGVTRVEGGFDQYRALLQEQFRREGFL
UniProt Q15057: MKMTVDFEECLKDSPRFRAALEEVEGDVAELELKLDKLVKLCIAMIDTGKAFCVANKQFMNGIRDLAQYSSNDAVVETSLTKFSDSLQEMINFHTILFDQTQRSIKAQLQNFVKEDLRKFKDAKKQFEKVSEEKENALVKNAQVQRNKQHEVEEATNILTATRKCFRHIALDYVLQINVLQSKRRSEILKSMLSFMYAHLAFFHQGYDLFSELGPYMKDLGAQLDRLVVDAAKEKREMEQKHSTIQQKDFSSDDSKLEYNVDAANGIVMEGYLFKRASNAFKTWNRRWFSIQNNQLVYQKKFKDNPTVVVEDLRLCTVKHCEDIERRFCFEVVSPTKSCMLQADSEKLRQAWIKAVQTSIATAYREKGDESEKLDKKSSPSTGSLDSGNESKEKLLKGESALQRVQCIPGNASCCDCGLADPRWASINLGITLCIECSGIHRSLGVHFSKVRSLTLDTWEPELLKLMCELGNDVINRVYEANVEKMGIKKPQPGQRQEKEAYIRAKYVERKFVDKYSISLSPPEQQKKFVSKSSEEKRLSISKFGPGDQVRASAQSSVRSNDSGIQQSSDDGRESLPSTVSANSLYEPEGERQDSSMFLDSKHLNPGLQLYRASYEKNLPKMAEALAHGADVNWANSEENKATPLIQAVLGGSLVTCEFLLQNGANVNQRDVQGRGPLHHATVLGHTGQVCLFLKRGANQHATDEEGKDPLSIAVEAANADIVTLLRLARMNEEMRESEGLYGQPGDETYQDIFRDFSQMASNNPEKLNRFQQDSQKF
UniProt Q9BV23: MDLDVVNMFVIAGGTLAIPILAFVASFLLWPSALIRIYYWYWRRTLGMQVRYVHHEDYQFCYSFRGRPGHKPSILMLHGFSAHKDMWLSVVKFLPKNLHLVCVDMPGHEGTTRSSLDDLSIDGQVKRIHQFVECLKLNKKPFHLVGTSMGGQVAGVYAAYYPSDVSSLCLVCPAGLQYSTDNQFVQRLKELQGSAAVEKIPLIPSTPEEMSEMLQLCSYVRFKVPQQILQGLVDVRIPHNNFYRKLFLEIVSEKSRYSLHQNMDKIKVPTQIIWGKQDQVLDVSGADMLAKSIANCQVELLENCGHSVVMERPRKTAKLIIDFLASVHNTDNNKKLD
UniProt Q4L235: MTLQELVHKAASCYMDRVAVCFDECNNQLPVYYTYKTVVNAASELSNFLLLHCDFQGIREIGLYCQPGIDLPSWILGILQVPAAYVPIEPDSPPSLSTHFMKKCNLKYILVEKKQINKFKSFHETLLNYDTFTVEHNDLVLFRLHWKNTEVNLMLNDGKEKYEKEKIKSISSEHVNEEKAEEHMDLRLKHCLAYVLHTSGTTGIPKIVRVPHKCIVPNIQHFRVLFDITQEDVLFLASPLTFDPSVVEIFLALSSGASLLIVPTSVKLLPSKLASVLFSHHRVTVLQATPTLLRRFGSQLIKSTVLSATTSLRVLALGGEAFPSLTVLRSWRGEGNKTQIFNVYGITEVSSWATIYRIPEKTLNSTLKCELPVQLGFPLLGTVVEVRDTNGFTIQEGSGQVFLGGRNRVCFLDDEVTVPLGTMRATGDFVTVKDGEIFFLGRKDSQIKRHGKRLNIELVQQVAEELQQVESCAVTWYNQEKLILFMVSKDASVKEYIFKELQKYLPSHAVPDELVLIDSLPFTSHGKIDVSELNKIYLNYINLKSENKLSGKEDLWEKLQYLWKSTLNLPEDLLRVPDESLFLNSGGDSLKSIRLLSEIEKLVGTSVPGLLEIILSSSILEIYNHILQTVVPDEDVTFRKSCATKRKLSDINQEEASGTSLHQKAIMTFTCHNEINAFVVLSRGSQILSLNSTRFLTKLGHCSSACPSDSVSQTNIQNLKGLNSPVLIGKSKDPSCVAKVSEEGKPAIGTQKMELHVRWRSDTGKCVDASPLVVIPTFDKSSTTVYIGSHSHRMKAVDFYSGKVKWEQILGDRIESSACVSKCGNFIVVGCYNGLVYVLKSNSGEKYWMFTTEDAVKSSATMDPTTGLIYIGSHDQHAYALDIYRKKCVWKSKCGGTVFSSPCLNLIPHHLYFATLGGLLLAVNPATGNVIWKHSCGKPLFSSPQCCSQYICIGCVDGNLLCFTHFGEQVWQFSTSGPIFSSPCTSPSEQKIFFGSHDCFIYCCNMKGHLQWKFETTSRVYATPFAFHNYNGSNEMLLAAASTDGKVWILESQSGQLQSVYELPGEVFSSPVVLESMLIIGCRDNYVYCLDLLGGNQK

How the values were obtained:
[1] = compound: ClCC(=O)N[C@@H]1CCCc2ccccc12; test: log2 mean competition ratio of IA-DTB cysteine labelling (DMSO/compound) (log2 ratio); higher = stronger cysteine engagement by compound; settings: treatment time: 4 h, cell line lysate: HEK293T
Experimental: (§1)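 IA-DTB competitive cysteine chemoproteomics in HEK293T RIPA lysate. Lysates were treated with compound 29 or 30 at 50 or 200 µM for 4 h, then IA-DTB (500 µM, 1 h), trypsin-digested, NeutrAvidin-enriched and analysed by diaPASEF. Competition ratio = intensity DMSO / intensity compound (n=4 treated, n=64 DMSO); binding: mean log2 CR ≥ 1 and p ≤ 0.05 plus QC filters. Target is the cysteine site.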

[2] = compound: ClCC(=O)N[C@H]1CCCc2ccccc12; test: as above; settings: treatment time: 4 h, cell line lysate: HEK293T
Experimental: as §1

Row | Target | log2 mean competition ratio ([1]; 50 µM) | log2 mean competition ratio ([1]; 200 µM) | log2 mean competition ratio ([2]; 50 µM) | log2 mean competition ratio ([2]; 200 µM)
1 | ABCC1 C730 (UniProt P33527) | -0.0559 | -0.204 | -0.00046 | -0.185
2 | ACAA1 C148 (UniProt P09110) | 0.317 | 0.0751 | 0.903 | -0.0825
3 | AAK1 C319 | -0.231 | -0.408 | -0.0663 | -0.569
4 | ABCF3 C4 (UniProt Q9NUQ8) | -0.202 | -0.278 | 0.373 | 0.0969
5 | ACAP2 C468 (UniProt Q15057) | 0.0256 | -0.165 | -0.0907 | -0.122
6 | ABHD6 C102 (UniProt Q9BV23) | -0.283 | -0.0419 | -0.794 | -0.259
7 | ABRAXAS2 C237 (UniProt Q15018) | -0.196 | -0.102 | -0.317 | -0.277
8 | ACAT1 C126 | 0.565 | 2.48 | 0.406 | 0.487
9 | AASDH C13 (UniProt Q4L235) | 0.0178 | -0.0208 | 0.0738 | -0.0394
